{"source": "the supplement of paper PMC8728848", "binders": {"B1": {"name": "SJCP1084 (Schistosoma japonicum) (protein)", "chain": "MRIINLVIISTALLLINLLQTKSQANGEDTKNGTPDDPGLTKSTELKVEVQALLKDKKTNMRVKWNENLLDNTKPEYHNLRDEACELLLQIVRSVVPLSQDDGECKDVTFTKYVVGTKDGAVNVKLTITFKDSVAINQKPMDLKLKLENDFKNLQSESTLKATKPTFTVKVEKRLIPISKPQTTPPTTAKNDASKENVGDIGGEDSTVPTAAPATAASANEEKDEGDKDNKDSQHPNVLTSNVNDRNLIIALVALMILAIGVALTAAVKQR"}}, "assay_in_all_cases": "glycan array binding signal (z-score within array); higher = stronger binding", "conditions_in_all_cases": "glycan notation: IUPAC condensed, linker removed", "key": {"[1]": {"target": "Gal(b1-2)Gal", "method_in_brief": "(§1)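 The binding signal is a Z-score computed within each array. Data were drawn from 3228 arrays in the Consortium for Functional Glycomics database, restricted to those with a known protein sequence. Scores were averaged over arrays of the same protein sequence at different concentrations or buffers, and over linkers, and negative values can be taken as non-binding.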"}, "[2]": {"target": "Gal(b1-3)Gal", "method_in_brief": "as §1"}, "[3]": {"target": "Gal(b1-3)Gal(b1-4)GlcNAc", "method_in_brief": "as §1"}, "[4]": {"target": "Gal(b1-3)GalNAc", "method_in_brief": "as §1"}, "[5]": {"target": "Gal(b1-3)GalNAc(a1-3)[Fuc(a1-2)]Gal(b1-4)Glc", "method_in_brief": "as §1"}, "[6]": {"target": "Gal(b1-3)GalNAc(a1-3)[Fuc(a1-2)]Gal(b1-4)GlcNAc", "method_in_brief": "as §1"}, "[7]": {"target": "Gal(b1-3)GalNAc(b1-3)Gal", "method_in_brief": "as §1"}, "[8]": {"target": "Gal(b1-3)GalNAc(b1-3)Gal(a1-4)Gal(b1-4)Glc", "method_in_brief": "as §1"}, "[9]": {"target": "Gal(b1-3)GalNAc(b1-4)Gal(b1-4)Glc", "method_in_brief": "as §1"}, "[10]": {"target": "Gal(b1-3)GalNAc(b1-4)[Neu5Ac(a2-3)]Gal(b1-4)Glc", "method_in_brief": "as §1"}, "[11]": {"target": "Gal(b1-3)GlcNAc", "method_in_brief": "as §1"}, "[12]": {"target": "Gal(b1-3)GlcNAc(a1-3)Gal(b1-4)GlcNAc", "method_in_brief": "as §1"}, "[13]": {"target": "Gal(b1-3)GlcNAc(a1-6)Gal(b1-4)GlcNAc", "method_in_brief": "as §1"}, "[14]": {"target": "Gal(b1-3)GlcNAc(b1-2)Man", "method_in_brief": "as §1"}, "[15]": {"target": "Gal(b1-3)GlcNAc(b1-2)Man(a1-3)[Gal(b1-3)GlcNAc(b1-2)Man(a1-6)]Man(b1-4)GlcNAc(b1-4)GlcNAc", "method_in_brief": "as §1"}, "[16]": {"target": "Gal(b1-3)GlcNAc(b1-2)Man(a1-3)[Gal(b1-3)GlcNAc(b1-2)Man(a1-6)]Man(b1-4)GlcNAc(b1-4)[Fuc(a1-6)]GlcNAc", "method_in_brief": "as §1"}, "[17]": {"target": "Gal(b1-3)GlcNAc(b1-2)Man(a1-3)[GlcNAc(b1-4)][Gal(b1-3)GlcNAc(b1-2)Man(a1-6)]Man(b1-4)GlcNAc(b1-4)GlcNAc", "method_in_brief": "as §1"}, "[18]": {"target": "Gal(b1-3)GlcNAc(b1-2)[Gal(b1-3)GlcNAc(b1-6)]Man(a1-6)[Gal(b1-3)GlcNAc(b1-2)Man(a1-3)]Man(b1-4)GlcNAc(b1-4)GlcNAc", "method_in_brief": "as §1"}, "[19]": {"target": "Gal(b1-3)GlcNAc(b1-3)Gal(b1-3)GlcNAc", "method_in_brief": "as §1"}, "[20]": {"target": "Gal(b1-3)GlcNAc(b1-3)Gal(b1-4)Glc", "method_in_brief": "as §1"}, "[21]": {"target": "Gal(b1-3)GlcNAc(b1-3)Gal(b1-4)GlcNAc", "method_in_brief": "as §1"}, "[22]": {"target": "Gal(b1-3)GlcNAc(b1-3)Gal(b1-4)GlcNAc(b1-2)Man(a1-3)[Gal(b1-3)GlcNAc(b1-3)Gal(b1-4)GlcNAc(b1-2)Man(a1-6)]Man(b1-4)GlcNAc(b1-4)GlcNAc", "method_in_brief": "as §1"}, "[23]": {"target": "Gal(b1-3)GlcNAc(b1-3)Gal(b1-4)GlcNAc(b1-2)[Gal(b1-3)GlcNAc(b1-3)Gal(b1-4)GlcNAc(b1-6)]Man(a1-6)[Gal(b1-3)GlcNAc(b1-3)Gal(b1-4)GlcNAc(b1-2)Man(a1-3)]Man(b1-4)GlcNAc(b1-4)[Fuc(a1-6)]GlcNAc", "method_in_brief": "as §1"}, "[24]": {"target": "Gal(b1-3)GlcNAc(b1-3)Gal(b1-4)GlcNAc(b1-3)Gal(b1-4)GlcNAc(b1-2)[Gal(b1-3)GlcNAc(b1-3)Gal(b1-4)GlcNAc(b1-3)Gal(b1-4)GlcNAc(b1-6)]Man(a1-6)[Gal(b1-3)GlcNAc(b1-3)Gal(b1-4)GlcNAc(b1-3)Gal(b1-4)GlcNAc(b1-2)Man(a1-3)]Man(b1-4)GlcNAc(b1-4)[Fuc(a1-6)]GlcNAc", "method_in_brief": "as §1"}, "[25]": {"target": "Gal(b1-3)GlcNAc(b1-3)Gal(b1-4)GlcNAc(b1-6)[Gal(b1-3)GlcNAc(b1-3)]Gal(b1-4)Glc", "method_in_brief": "as §1"}, "[26]": {"target": "Gal(b1-3)GlcNAc(b1-3)Gal(b1-4)[Fuc(a1-3)]GlcNAc", "method_in_brief": "as §1"}, "[27]": {"target": "Gal(b1-3)GlcNAc(b1-3)Gal(b1-4)[Fuc(a1-3)]GlcNAc(b1-6)[Gal(b1-3)GlcNAc(b1-3)]Gal(b1-4)Glc", "method_in_brief": "as §1"}, "[28]": {"target": "Gal(b1-3)GlcNAc(b1-3)GalNAc", "method_in_brief": "as §1"}, "[29]": {"target": "Gal(b1-3)GlcNAc(b1-6)Gal(b1-4)GlcNAc", "method_in_brief": "as §1"}, "[30]": {"target": "Gal(b1-3)GlcNAc(b1-6)GalNAc", "method_in_brief": "as §1"}, "[31]": {"target": "Gal(b1-3)GlcNAc(b1-6)[Gal(b1-3)]GalNAc", "method_in_brief": "as §1"}, "[32]": {"target": "Gal(b1-3)GlcNAc6S", "method_in_brief": "as §1"}, "[33]": {"target": "Gal(b1-3)[Fuc(a1-4)]GlcNAc", "method_in_brief": "as §1"}, "[34]": {"target": "Gal(b1-3)[Fuc(a1-4)]GlcNAc(b1-2)Man", "method_in_brief": "as §1"}, "[35]": {"target": "Gal(b1-3)[Fuc(a1-4)]GlcNAc(b1-2)Man(a1-3)[Gal(b1-3)[Fuc(a1-4)]GlcNAc(b1-2)Man(a1-6)]Man(b1-4)GlcNAc(b1-4)[Fuc(a1-6)]GlcNAc", "method_in_brief": "as §1"}, "[36]": {"target": "Gal(b1-3)[Fuc(a1-4)]GlcNAc(b1-3)Gal(b1-3)[Fuc(a1-4)]GlcNAc", "method_in_brief": "as §1"}, "[37]": {"target": "Gal(b1-3)[Fuc(a1-4)]GlcNAc(b1-3)Gal(b1-4)[Fuc(a1-3)]GlcNAc", "method_in_brief": "as §1"}}, "note": "Some of the results follow.", "data": [{"binder": "B1", "values": [{"measurement": "glycan array binding signal (z-score)", "setting": "[1]", "result": -0.432}, {"measurement": "glycan array binding signal (z-score)", "setting": "[2]", "result": 0.48}, {"measurement": "glycan array binding signal (z-score)", "setting": "[3]", "result": 0.899}, {"measurement": "glycan array binding signal (z-score)", "setting": "[4]", "result": 0.536}, {"measurement": "glycan array binding signal (z-score)", "setting": "[5]", "result": 0.564}, {"measurement": "glycan array binding signal (z-score)", "setting": "[6]", "result": -0.266}, {"measurement": "glycan array binding signal (z-score)", "setting": "[7]", "result": -0.96}, {"measurement": "glycan array binding signal (z-score)", "setting": "[8]", "result": 1.51}, {"measurement": "glycan array binding signal (z-score)", "setting": "[9]", "result": 0.275}, {"measurement": "glycan array binding signal (z-score)", "setting": "[10]", "result": 0.579}, {"measurement": "glycan array binding signal (z-score)", "setting": "[11]", "result": -0.357}, {"measurement": "glycan array binding signal (z-score)", "setting": "[12]", "result": -0.783}, {"measurement": "glycan array binding signal (z-score)", "setting": "[13]", "result": -0.268}, {"measurement": "glycan array binding signal (z-score)", "setting": "[14]", "result": -0.355}, {"measurement": "glycan array binding signal (z-score)", "setting": "[15]", "result": 0.943}, {"measurement": "glycan array binding signal (z-score)", "setting": "[16]", "result": 0.561}, {"measurement": "glycan array binding signal (z-score)", "setting": "[17]", "result": 0.08}, {"measurement": "glycan array binding signal (z-score)", "setting": "[18]", "result": 0.316}, {"measurement": "glycan array binding signal (z-score)", "setting": "[19]", "result": -0.391}, {"measurement": "glycan array binding signal (z-score)", "setting": "[20]", "result": 0.259}, {"measurement": "glycan array binding signal (z-score)", "setting": "[21]", "result": -1.31}, {"measurement": "glycan array binding signal (z-score)", "setting": "[22]", "result": 0.617}, {"measurement": "glycan array binding signal (z-score)", "setting": "[23]", "result": 0.09}, {"measurement": "glycan array binding signal (z-score)", "setting": "[24]", "result": 1.59}, {"measurement": "glycan array binding signal (z-score)", "setting": "[25]", "result": 1.66}, {"measurement": "glycan array binding signal (z-score)", "setting": "[26]", "result": -0.553}, {"measurement": "glycan array binding signal (z-score)", "setting": "[27]", "result": -0.024}, {"measurement": "glycan array binding signal (z-score)", "setting": "[28]", "result": -0.886}, {"measurement": "glycan array binding signal (z-score)", "setting": "[29]", "result": -0.008}, {"measurement": "glycan array binding signal (z-score)", "setting": "[30]", "result": -0.614}, {"measurement": "glycan array binding signal (z-score)", "setting": "[31]", "result": -1.2}, {"measurement": "glycan array binding signal (z-score)", "setting": "[32]", "result": -0.01}, {"measurement": "glycan array binding signal (z-score)", "setting": "[33]", "result": -0.796}, {"measurement": "glycan array binding signal (z-score)", "setting": "[34]", "result": 2.49}, {"measurement": "glycan array binding signal (z-score)", "setting": "[35]", "result": -1.03}, {"measurement": "glycan array binding signal (z-score)", "setting": "[36]", "result": -1.02}, {"measurement": "glycan array binding signal (z-score)", "setting": "[37]", "result": -0.185}]}]}
